From article PMC10163288
This is one part of the list.

B1: il2ra_site1_2b5i_sap_27_mot_2cbe48e66a1f39b3fed734b245ab0a04_0001_000000015_0001_17_31_H_._HHH_b1_01788_0001_0000400018_0000001_0_0001_af2pred_dldesign_0_af2pre … (protein)
chain: SSSSSDPEAMLAEAERLFEAGEPEKALELLEKAAEEVDAADDRELKKRLVRLYYRVKVLSSSSSS
B2: il2ra_site1_2b5i_sap_15_mot_HHH_b2_06557_000000199_0001_42_56_H_._HHH_b1_01573_af2_0001_0000400035_0000001_0_0001_af2pred_dldesign_0_af2pred (protein)
chain: SSSSSSDTKEALELFLKADELFKAGKEEEAKKALEEALKLAEKAKCKLCIKIITSALKEISSSSS
B3: il2ra_site1_3nfp_normal_mot_HHH_b1_02869_af2_000000018_0001_41_55_H_._HEEHE_2123_0001_0000700044_0000001_0 (protein)
chain: ELELDVEHLARALARAARVPKVEIEIENNRVTVTVEGDDEAARRALEAAEQFWRLLGYEVENEIE
B4: il2ra_site2_2erj_normal_mot_ca9fcc9ace360711d783d1260e4fbff1_0001_1_af2_000000007_0001_15_32_H_._HHH_b2_05327_af2_0001_0000100002_0000001_0 (protein)
chain: SSSSDEALRRLFRLAVEILHALARGDPEEFEELVKELRELAKELNNREVEKLLEHLERLARSSSS
B5: il2ra_site2_2erj_normal_mot_HHH_b2_02572_000000008_0001_42_59_H_._HHH_b1_00676_0001_0000600027_0000001_0 (protein)
chain: SSSSSDEQEIFERVSELLLRLYHASEEEAEELLEEARRLAEENNSPELERYVEFARRDFSSSSSS
B6: il2ra_site1_2b5i_sap_15_mot_HHH_b1_08426_af2_000000046_0001_39_52_H_._1e759223bb6b7646c131a6179565dc37_0001_0001_0000300037_0000001_0_0001_af2pred_dldesign_0_af … (protein)
chain: SSSSSPEREKIKKLIEEAKEAKAAGKRREALELLEEAYKLASELGDEELEAEVEALAKEVSSSSS
B7: il2ra_site1_3nfp_normal_mot_HHH_b1_00042_af2_000000196_0001_42_57_H_._HHH_b1_04846_0001_0000300015_0000001_0 (protein)
chain: SSSSTEELEELKKLAEELWRLLREGDEEEIRRLLEEIEKLAREVNDEVAEWLVEQVEKLKSSSSS
B8: il2ra_site1_3nfp_normal_mot_891b8491a18eb46c9ad5c1702b87f9cc_0001_000000120_0001_18_33_H_._a977d6a2cfab3d20b8a840e59b1ed461_0001_1_0001_0000100007_0000001_0 (protein)
chain: DEELERVKELLEKLGDPQARALVKFLEQAFKSANVPPEYVLKALEEALEKLGDPEAVRLLEEAIK
B9: il2ra_site2_2erj_normal_mot_HHH_b1_04373_af2_000000118_0001_18_33_H_._HHH_b2_00397_0001_0000200023_0000001_0 (protein)
chain: SSSSDEIEEEARQILEEAEEAHEQGDLERTYELAVEALRVASEGNDEEAQRLVAEVAEKLSSSSS
B10: il2ra_site1_1z92_normal_mot_HHH_b2_02540_000000162_0001_1_16_H_._HHH_b1_06172_0001_0000500029_0000001_0 (protein)
chain: SSSSSKYEKAIRWALELLEAALKTESERLFEFLVEFIRLFVKQNNNEELQEELERLEEEFRSSSS
B11: il2ra_site1_1z92_normal_mot_203a44625a3a2ba431098544127a80a6_0001_af2_000000214_0001_15_33_H_._HHH_b1_01554_af2_0001_0000300017_0000001_0_af2pred_0001_af2pred_1 (protein)
chain: SSSSSSERFARHVVEILVKLAHLSEEQEEELRELAEELVKRGYSDREIAQILNKLAAELESSSSS
B12: il2ra_site2_3nfp_normal_mot_HHH_b1_04032_000000208_0001_43_56_H_._7ecccec7bd2d3ab74121640ad5a1fb94_0001_0001_0000600018_0000001_0 (protein)
chain: DAEFIILAAESAHKSPLARKLLEAHIEVLKQHNPERAELVQEVLELIEEGNPERAKEVAEEVEKR
B13: il2ra_site2_3nfp_normal_mot_HHH_b1_07447_af2_000000181_0001_1_21_H_._HHH_b2_03168_0001_0000100005_0000001_0 (protein)
chain: SSSSDQLELAVEFVAAAARLRGNPELAEELERLIEEYKQEGDPRIKREIIELLDEAFQLLQSSSS
B14: il2ra_site1_3nfp_sap_7_mot_d8099cd8ef6a59b9c03de2010570d688_0001_af2_000000259_0001_37_51_H_._HHH_b1_03897_0001_0000200003_0000001_0_0001_af2pred_dldesign_0_af2 … (protein)
chain: RERIKRAVRAAKKKKSPALLQYALDLLYEHTKDPEVKEVKAEFEKLYHVDPEAAMKLALDYLEKL
B15: il2ra_site2_3nfp_sap_29_mot_HHH_b1_06431_000000233_0001_39_56_H_._0e529dd47276c7fc43eae82927e5780b_0001_0001_0000100001_0000001_0_0001 (protein)
chain: SSSSSSEEEEVRELIEEAEETSKRDPEKARRILRRAALIAAEIRNHELFAEINELLEKLVSSSSS
B16: il2ra_site1_2b5i_normal_mot_HHH_b1_00095_000000042_0001_1_14_H_._HHH_b1_03323_0001_0000400015_0000001_0_af2pred_dldesign_0_af2pred (protein)
chain: SSSSGPRLEALKELERILKELEELKDEEAYEKAEELAEEFLRTQDLRYLEEARKLLEEAKSSSSS
B17: il2ra_site1_3nfp_sap_15_mot_HHH_b1_04144_000000286_0001_1_18_H_._cbfbdadfdfee4acf7bbafee7633b20e7_0001_1_af2_0001_0000900054_0000001_0_0001_af2pred_0001_af2pred … (protein)
chain: SAAEIYLERAVKLNSERALRKFIEDLLRYFGNPEEVEEFLEKLVKELGLPPEVLERLQELLEELT
B18: il2ra_site2_2erj_normal_mot_HHH_b1_02968_000000142_0001_22_39_H_._HHH_b2_08255_0001_0000300010_0000001_0 (protein)
chain: SSSSSSSAEEEIEELLERAEQISDLREVYKLAVEALRLASEARDPRLQELIREVLKRLSSSSSSS
B19: il2ra_site1_2b5i_sap_9_mot_HHH_b2_03607_af2_000000052_0001_1_19_H_._HHH_b2_04098_af2_0001_0000400034_0000001_0_0001_af2pred_0001_af2pred_1 (protein)
chain: SSSSDRFERVLELWREASKLFREGNPEEAREVLEEALELAEQAGDERARKDVEFLLEFLKSSSSS

molecular target: il2ra, P01589; test: yeast display titration

Apparent Kd, inactive:
B1 no binding seen
B2 no binding seen
B3 no binding seen
B4 no binding seen
B5 no binding seen
B6 no binding seen
B7 no binding seen
B8 no binding seen
B9 no binding seen
B10 no binding seen
B11 no binding seen
B12 no binding seen
B13 no binding seen
B14 no binding seen
B15 no binding seen
B16 no binding seen
B17 no binding seen
B18 no binding seen
B19 no binding seen

No new results follow: an excerpt of the list.
Apparent Kd, inactive:
B6 no binding seen
B7 no binding seen
B8 no binding seen
B9 no binding seen
B10 no binding seen
